{"source": "PubChem BioAssay AID504834", "about": "(National Center for Advancing Translational Sciences (NCATS), 2011)", "note": "In all, about 320,000 compounds went through this assay and about 22,000 (6.9%) were called active. The inconclusive results got no clear call from the source; some entries with a clear call stand among them for comparison. Calls come from the whole dose curve; as a rule, active = well fitted inhibition curve with a large enough effect; inconclusive = small, poorly fitted or top-dose-only effect, or another doubt; inactive = no such curve, though single readings can be large or run the other way. Where the call is inconclusive, the potency comes from a doubtful curve fit. Potency is the fitted concentration of half-maximal effect."}
{"experiment": "Primary qHTS for delayed death inhibitors of the malarial parasite plastid, 96 hour incubation", "conditions": "P. falciparum luciferase reporter growth; series mostly up to 28.7 µM", "procedure,_shortened": "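Two parasite generations (96 h, 37 C, 5% CO2) of compound exposure in infected erythrocytes (0.05% parasitemia, 2% hematocrit). Luciferase-reporter P. falciparum; decreased luminescence indicates inhibited growth, aimed at apicoplast-acting delayed death.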"}
{"smiles": "Brc1ccc(-c2csc3[n+]2CCCCC3)cc1", "Potency": "inconclusive: 3.29 µM [inhibitor, partial curve, poor fit]"}
{"smiles": "O=C(COc1ccccc1F)Nc1ccc(S(=O)(=O)N2CCCC2)cc1", "Potency": "inconclusive: 11.7 µM [inhibitor, partial curve, poor fit]"}
{"smiles": "CCOC(=O)c1c(-c2cccs2)csc1NC(C)=O", "Potency": "inconclusive: 18.5 µM [inhibitor, single point]"}
{"smiles": "COc1cccc(-c2cc(=O)c3cc(NC(=O)c4ccccc4)ccc3[nH]2)c1", "Potency": "inconclusive: 14.7 µM [inhibitor, partial curve]"}
{"smiles": "CCc1nc(C)ccc1OC(=O)C12CC3CC(CC(C3)C1)C2", "Potency": "active: 0.586 µM"}
{"smiles": "CC(C)c1ccc(NS(=O)(=O)c2cn(C)c(=O)n(C)c2=O)cc1", "Potency": "inconclusive: 4.15 µM [inhibitor, partial curve, poor fit]"}
{"smiles": "CCOC(=O)CNC(=O)N1CCCC(CNS(=O)(=O)Cc2ccccc2)C1", "note": "(centres undefined)", "Potency": "inactive"}
{"smiles": "CCS(=O)(=O)c1ncc(Cl)c(C(=O)Nc2ccc(S(=O)(=O)N(C)c3ccccc3)cc2)n1", "Potency": "inactive"}
{"smiles": "Cc1ccc(/C=C/c2onc(C)c2S(=O)(=O)N2CCC(C(=O)N3CCN(C)CC3)CC2)cc1", "Potency": "inconclusive: 8.28 µM [inhibitor, partial curve]"}
{"smiles": "CC(C)NCCCOc1ccc(Cl)cc1Br", "Potency": "inconclusive: 18.5 µM [inhibitor, single point]"}
{"smiles": "Cc1c(NC(=O)c2ccc(CC(C)C)o2)c(=O)n(-c2ccccc2)n1C", "Potency": "inconclusive: 1.65 µM [inhibitor, partial curve]"}
{"smiles": "O=C(Cc1ccc(Cl)c(Cl)c1)N/N=C/c1cccnc1", "Potency": "inactive"}
{"smiles": "CCCOc1ccc(CN(CCO)CCO)cc1[N+](=O)[O-]", "Potency": "inconclusive: 18.5 µM [inhibitor, single point]"}
{"smiles": "O=C(NC(=S)N1CCCC1)c1ccccc1F", "Potency": "inactive"}
{"smiles": "CCOC(=O)c1c(C)[nH]c(C(=O)CSc2nnc(-c3cccs3)n2Cc2ccccc2)c1C", "Potency": "inconclusive: 0.131 µM [inhibitor, full curve, poor fit]"}
{"smiles": "C=CCN1C(=O)NC(=O)/C(=C/c2cnc(SC)nc2)C1=O", "Potency": "inconclusive: 4.15 µM [inhibitor, partial curve, poor fit]"}
{"smiles": "C/C(=N\\NC(=O)COc1ccc(C(C)(C)C)cc1)c1ccc(-n2ccnc2)cc1", "Potency": "active: 10.4 µM"}
{"smiles": "CCO/C(C)=N/n1c2nc3ccccc3nc2c2c(=O)n(CC(C)C)c(C)nc21", "Potency": "active: 2.33 µM"}
{"smiles": "COc1ccc(N2CC(C(=O)NCCCN3CCOCC3)CC2=O)cc1", "note": "(centres undefined)", "Potency": "inactive"}
{"smiles": "O=c1[nH]c2ccc(NC(=S)Nc3ccccc3Cl)cc2[nH]1", "Potency": "inactive"}
{"smiles": "CC(C)C(NCc1c(Cl)cccc1Cl)C(=O)O", "note": "(centres undefined)", "Potency": "inconclusive: 18.5 µM [inhibitor, single point]"}
{"smiles": "COc1ccc(NS(=O)(=O)c2cccc(C(=O)NCC(c3ccccc3)N(C)C)c2)cc1", "note": "(centres undefined)", "Potency": "inconclusive: 11.7 µM [inhibitor, single point]"}
{"smiles": "Cc1ccc(C(=O)N/N=C/c2cn(Cc3ccccc3)c3ccccc23)cn1", "Potency": "inactive"}
{"smiles": "Fc1ccc(-c2c[nH]c(=S)n2Cc2ccccc2)cc1", "Potency": "inconclusive: 18.5 µM [inhibitor, single point]"}
{"smiles": "Cc1cc2c(C)nc(N/N=C/c3ccc([N+](=O)[O-])cc3)nc2o1", "Potency": "inconclusive: 18.5 µM [inhibitor, single point]"}
{"smiles": "O=C1C2C(C(=O)N1/N=C/c1ccc([N+](=O)[O-])o1)C1C=CC2C12CC2", "note": "(centres undefined)", "Potency": "inconclusive: 6.57 µM [inhibitor, partial curve, poor fit]"}
{"smiles": "CC1CN(c2ccc(NC(=O)c3ccco3)cc2C(=O)O)CC(C)O1", "note": "(centres undefined)", "Potency": "inactive"}
{"smiles": "CS(=O)(=O)NN1C(=O)c2ccccc2NC1c1c[nH]c2ccccc12", "note": "(centres undefined)", "Potency": "inactive"}
{"smiles": "COc1cccc2cc(C(=O)N3CCN(c4ccc(C)cc4C)CC3)c(=O)oc12", "Potency": "inconclusive: 8.28 µM [inhibitor, partial curve, poor fit]"}
{"smiles": "COc1ccccc1-c1cc2nc(C)c(CCC(=O)NCc3ccco3)c(C)n2n1", "Potency": "inconclusive: 5.86 µM [inhibitor, partial curve, poor fit]"}
{"smiles": "COc1ccc(-c2cc3ccccc3s2)cc1[C@H]1[C@H]2C=CC[C@@H](C)[C@@H]2C(=O)N1Cc1ccccc1", "Potency": "inconclusive: 4.15 µM [inhibitor, partial curve, poor fit]"}
{"smiles": "COCc1cc(/C=N\\NC(=O)COc2ccccc2)ccc1OC", "Potency": "inactive"}
{"smiles": "Cc1ccccc1NS(=O)(=O)c1cc(C(=O)Nc2cccc(N(C)S(C)(=O)=O)c2)ccc1C", "Potency": "inconclusive: 9.28 µM [inhibitor, partial curve]"}
{"smiles": "Cc1ccccc1NC(=O)c1snc2c(=O)[nH]cnc12", "Potency": "inactive"}
{"smiles": "CCn1c(C)nc2cc(C(=O)NNC(=S)Nc3ccc(Cl)cc3Cl)ccc21", "Potency": "inconclusive: 18.5 µM [inhibitor, single point]"}
{"smiles": "CC(=O)NS(=O)(=O)c1ccc(NC(=O)/C=C/c2cn(-c3ccccc3)nc2-c2ccccc2)cc1", "Potency": "inactive"}
{"smiles": "CCCCCC/C(C=O)=C\\c1ccccc1", "Potency": "inactive"}
{"smiles": "CN(C)C(=O)c1nnc(Cc2ccc(Cl)cc2)o1", "Potency": "inconclusive: 14.7 µM [inhibitor, single point]"}
{"smiles": "CCOc1ccc(-c2nnn(CC(=O)NCc3ccc(F)cc3)n2)cc1OCC", "Potency": "inconclusive: 18.5 µM [inhibitor, single point]"}
{"smiles": "COc1ccc(-c2nc(/C=C3\\C(C)=Nc4ccccc43)c(O)o2)cc1", "Potency": "inactive"}
{"smiles": "COc1ccc(C(=O)NN/C(C)=C/C(=O)C(F)(F)C(F)(F)C(F)(F)F)cc1", "Potency": "inconclusive: 13.1 µM [inhibitor, single point]"}
{"smiles": "CN1C(=O)c2ccccc2C(C(=O)O)C1c1cccc(Cl)c1", "note": "(centres undefined)", "Potency": "inconclusive: 5.22 µM [inhibitor, partial curve, poor fit]"}
{"smiles": "CCn1c(SCC(=O)Nc2cc(C)on2)nnc1-c1ccc(C)cc1", "Potency": "inconclusive: 13.1 µM [inhibitor, single point]"}
{"smiles": "Cc1cc(C)cc(NC(=O)Nc2cc(S(=O)(=O)N(C)C)ccc2C)c1", "Potency": "inconclusive: 8.28 µM [inhibitor, partial curve, poor fit]"}
{"smiles": "CSC(=S)N/N=C(\\C)c1ccccc1", "Potency": "inconclusive: 18.5 µM [inhibitor, single point]"}
{"smiles": "C/C(=N\\NC(=S)NC1CCCCC1)c1ccc(C)o1", "Potency": "active: 4.65 µM"}
{"smiles": "CCNC(=O)c1c(O)c2cccc3c2n(c1=O)CC3", "Potency": "inconclusive: 5.22 µM [inhibitor, partial curve, poor fit]"}
{"smiles": "CCOC(=O)C(C(=O)OCC)C(=O)c1cc(OC)c(OC)c(OC)c1", "Potency": "inconclusive: 13.1 µM [inhibitor, partial curve, poor fit]"}
{"smiles": "Cc1cc(C)c(NC(=O)CS(=O)CC(=O)NC2CCCc3ccccc32)c(C)c1", "note": "(centres undefined)", "Potency": "active: 10.4 µM"}
{"smiles": "O=C(/C=C/c1ccc(Cl)c(Cl)c1)N1CCc2ccccc21", "Potency": "inactive"}
{"smiles": "O=C(Cc1ccccc1)NCC(=O)OCC(=O)c1ccc([N+](=O)[O-])cc1", "Potency": "inconclusive: 9.28 µM [inhibitor, single point]"}
{"smiles": "Cc1c(C(=O)N(CC(C)C)c2c(N)n(Cc3ccccc3)c(=O)[nH]c2=O)sc2nc3n(c(=O)c12)CCC3", "Potency": "inconclusive: 9.28 µM [inhibitor, partial curve]"}
{"smiles": "CC(C)CC(=O)Nc1nnc(SCC(=O)NCc2ccc3c(c2)OCO3)s1", "Potency": "inconclusive: 20.8 µM [inhibitor, partial curve, poor fit]"}
{"smiles": "COc1ccc(-c2csc(N(CC3CCCO3)C(=O)c3ccco3)n2)cc1", "note": "(centres undefined)", "Potency": "inconclusive: 13.1 µM [inhibitor, single point]"}
{"smiles": "CN(C)S(=O)(=O)c1cccc(NC(=O)Cc2ccc(-c3ccccc3)cc2)c1", "Potency": "inconclusive: 11.7 µM [inhibitor, partial curve, poor fit]"}
{"smiles": "Cc1ccc(-n2c(NN)nc3ccccc3c2=O)c(C)c1", "Potency": "active: 9.28 µM"}
{"smiles": "CN(Cc1ccccc1)S(=O)(=O)c1ccc2[nH]c(=O)oc2c1", "Potency": "inactive"}
{"smiles": "CCN(c1cccc(C)c1)S(=O)(=O)c1ccc2[nH]c(=O)c(=O)[nH]c2c1", "Potency": "inconclusive: 20.8 µM [inhibitor, single point]"}
{"smiles": "O=C(CSc1ncnc2ccccc12)c1cccs1", "Potency": "inactive"}
{"smiles": "CN(CC(=O)Nc1ccc2c(c1)OCCO2)S(=O)(=O)c1ccc(Br)s1", "Potency": "active: 13.1 µM"}
{"smiles": "Nc1ccc(S(=O)(=O)NCc2ccccc2)cc1", "Potency": "inactive"}
{"smiles": "CCOc1ccc2c(c1)-c1c(ssc1=S)C(C)(C)N2", "Potency": "inconclusive: 18.5 µM [inhibitor, single point]"}
{"smiles": "CCCCN(Cc1ccccc1)C(=O)c1cnc2n(c1=O)CCS2", "Potency": "inconclusive: 1.65 µM [inhibitor, partial curve, poor fit]"}
{"smiles": "O=[N+]([O-])c1ccc2cn(-c3ccccc3)nc2c1", "Potency": "inactive"}
{"smiles": "CCOc1ccc(NC(=O)CN(C)C(=O)c2csc3c2CCCC3)cc1OCC", "Potency": "inconclusive: 18.5 µM [inhibitor, single point]"}
{"smiles": "CCc1ccccc1N1C(=O)/C(=C/c2ccc(N3CCN(C)CC3)o2)C(=O)NC1=S", "Potency": "inconclusive: 18.5 µM [inhibitor, single point]"}
{"smiles": "COc1cc(/C=N/NC(=O)CSc2nc3ccccc3n2C)cc(OC)c1OC", "Potency": "inconclusive: 10.4 µM [inhibitor, single point]"}
{"smiles": "COC(=O)C1=C(C#N)NC(C)=C(C(=O)OC(C)C)C1c1cccc([N+](=O)[O-])c1", "note": "(centres undefined)", "Potency": "active: 1.2 µM"}
{"smiles": "Cc1cccc(C(=O)/C=C2/c3ccccc3CC(C)(C)N2C)c1", "Potency": "inconclusive: 9.28 µM [inhibitor, partial curve, poor fit]"}
